Results are given in words; binding and its absence hold for the method and conditions named. Binding seen in cells or lysates may run through a third protein. These calls come from enrichment with a bait or labelling near it, and not all partners need be listed. For part of these data: A no says only that the protein was not detected with the bait.
T1: FOSL2 (human (endogenous in Th17 cells)) (UniProt P15408)
T1 sequence: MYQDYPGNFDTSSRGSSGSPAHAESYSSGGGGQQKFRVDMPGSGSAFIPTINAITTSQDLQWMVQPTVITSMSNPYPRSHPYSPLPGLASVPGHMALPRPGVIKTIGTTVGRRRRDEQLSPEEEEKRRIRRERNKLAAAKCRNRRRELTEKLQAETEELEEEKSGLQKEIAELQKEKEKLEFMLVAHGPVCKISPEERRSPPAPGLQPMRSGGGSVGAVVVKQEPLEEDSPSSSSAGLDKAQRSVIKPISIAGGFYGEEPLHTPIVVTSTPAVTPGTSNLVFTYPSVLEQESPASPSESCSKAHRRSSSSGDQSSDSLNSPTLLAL

Sequences of proteins named here, by UniProt entry; tags and fusion partners are left off. Residues count along the entry.
UniProt O14639: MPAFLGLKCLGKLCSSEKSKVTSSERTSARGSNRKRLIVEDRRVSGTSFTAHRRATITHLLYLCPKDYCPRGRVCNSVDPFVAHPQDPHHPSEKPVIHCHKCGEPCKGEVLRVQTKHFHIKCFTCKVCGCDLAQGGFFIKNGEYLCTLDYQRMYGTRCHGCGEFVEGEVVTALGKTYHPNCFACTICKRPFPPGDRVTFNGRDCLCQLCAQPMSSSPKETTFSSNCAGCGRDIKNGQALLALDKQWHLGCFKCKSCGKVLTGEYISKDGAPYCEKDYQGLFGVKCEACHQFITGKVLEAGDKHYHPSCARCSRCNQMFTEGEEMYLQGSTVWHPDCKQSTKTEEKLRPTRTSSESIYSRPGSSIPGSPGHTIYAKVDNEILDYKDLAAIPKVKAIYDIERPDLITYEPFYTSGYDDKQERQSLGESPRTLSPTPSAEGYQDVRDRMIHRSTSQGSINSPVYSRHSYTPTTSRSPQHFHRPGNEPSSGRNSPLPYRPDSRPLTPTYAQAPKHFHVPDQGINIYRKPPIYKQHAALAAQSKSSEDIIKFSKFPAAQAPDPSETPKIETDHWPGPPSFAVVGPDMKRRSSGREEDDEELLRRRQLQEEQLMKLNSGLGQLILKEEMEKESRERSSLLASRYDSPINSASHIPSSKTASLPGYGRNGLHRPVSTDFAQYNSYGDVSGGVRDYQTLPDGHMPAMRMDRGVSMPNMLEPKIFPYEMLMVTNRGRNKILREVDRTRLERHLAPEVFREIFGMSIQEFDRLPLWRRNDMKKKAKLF
UniProt P06127, residues 25-495: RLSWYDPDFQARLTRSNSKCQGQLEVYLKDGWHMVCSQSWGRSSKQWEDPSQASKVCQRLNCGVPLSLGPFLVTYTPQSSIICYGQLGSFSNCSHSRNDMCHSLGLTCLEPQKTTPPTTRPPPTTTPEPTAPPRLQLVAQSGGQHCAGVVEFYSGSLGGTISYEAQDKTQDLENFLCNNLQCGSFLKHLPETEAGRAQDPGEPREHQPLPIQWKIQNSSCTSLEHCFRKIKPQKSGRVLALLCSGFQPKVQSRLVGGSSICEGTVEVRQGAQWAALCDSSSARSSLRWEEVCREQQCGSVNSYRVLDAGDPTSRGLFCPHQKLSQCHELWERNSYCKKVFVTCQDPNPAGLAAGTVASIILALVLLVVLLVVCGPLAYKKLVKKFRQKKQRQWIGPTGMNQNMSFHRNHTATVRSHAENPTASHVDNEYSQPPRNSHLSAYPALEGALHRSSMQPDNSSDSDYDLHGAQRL
UniProt Q9ULV4: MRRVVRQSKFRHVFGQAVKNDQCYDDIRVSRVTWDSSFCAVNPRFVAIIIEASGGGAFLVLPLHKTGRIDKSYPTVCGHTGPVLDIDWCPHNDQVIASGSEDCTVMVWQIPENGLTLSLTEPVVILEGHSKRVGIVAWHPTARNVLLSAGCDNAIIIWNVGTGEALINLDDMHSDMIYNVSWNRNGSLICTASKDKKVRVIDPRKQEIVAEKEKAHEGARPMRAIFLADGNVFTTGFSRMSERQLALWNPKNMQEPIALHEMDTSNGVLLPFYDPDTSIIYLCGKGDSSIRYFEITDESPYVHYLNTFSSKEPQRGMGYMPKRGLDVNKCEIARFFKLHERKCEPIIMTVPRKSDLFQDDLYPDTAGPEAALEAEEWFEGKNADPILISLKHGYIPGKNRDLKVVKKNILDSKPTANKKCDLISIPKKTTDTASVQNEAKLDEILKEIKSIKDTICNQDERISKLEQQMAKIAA
UniProt O43143: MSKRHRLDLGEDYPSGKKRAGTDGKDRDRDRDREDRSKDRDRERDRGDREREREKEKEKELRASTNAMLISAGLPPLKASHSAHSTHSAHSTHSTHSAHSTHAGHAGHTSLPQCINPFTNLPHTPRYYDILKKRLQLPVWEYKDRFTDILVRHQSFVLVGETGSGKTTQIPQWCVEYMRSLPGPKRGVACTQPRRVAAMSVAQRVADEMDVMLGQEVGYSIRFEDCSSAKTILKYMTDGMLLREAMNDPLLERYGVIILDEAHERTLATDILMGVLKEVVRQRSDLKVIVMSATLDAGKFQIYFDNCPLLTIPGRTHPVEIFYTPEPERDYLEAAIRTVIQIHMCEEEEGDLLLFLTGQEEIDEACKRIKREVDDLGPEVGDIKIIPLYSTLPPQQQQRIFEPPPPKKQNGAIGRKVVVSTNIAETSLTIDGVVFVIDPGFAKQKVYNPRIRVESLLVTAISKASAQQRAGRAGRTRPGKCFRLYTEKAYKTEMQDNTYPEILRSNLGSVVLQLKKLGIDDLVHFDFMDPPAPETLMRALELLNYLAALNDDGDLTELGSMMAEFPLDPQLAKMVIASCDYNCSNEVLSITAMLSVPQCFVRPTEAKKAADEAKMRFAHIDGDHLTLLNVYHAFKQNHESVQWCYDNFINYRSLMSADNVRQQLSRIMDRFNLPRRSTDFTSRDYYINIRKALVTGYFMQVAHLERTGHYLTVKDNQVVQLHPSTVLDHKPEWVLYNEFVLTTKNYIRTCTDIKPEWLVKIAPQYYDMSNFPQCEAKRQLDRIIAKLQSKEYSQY
UniProt Q71RC2: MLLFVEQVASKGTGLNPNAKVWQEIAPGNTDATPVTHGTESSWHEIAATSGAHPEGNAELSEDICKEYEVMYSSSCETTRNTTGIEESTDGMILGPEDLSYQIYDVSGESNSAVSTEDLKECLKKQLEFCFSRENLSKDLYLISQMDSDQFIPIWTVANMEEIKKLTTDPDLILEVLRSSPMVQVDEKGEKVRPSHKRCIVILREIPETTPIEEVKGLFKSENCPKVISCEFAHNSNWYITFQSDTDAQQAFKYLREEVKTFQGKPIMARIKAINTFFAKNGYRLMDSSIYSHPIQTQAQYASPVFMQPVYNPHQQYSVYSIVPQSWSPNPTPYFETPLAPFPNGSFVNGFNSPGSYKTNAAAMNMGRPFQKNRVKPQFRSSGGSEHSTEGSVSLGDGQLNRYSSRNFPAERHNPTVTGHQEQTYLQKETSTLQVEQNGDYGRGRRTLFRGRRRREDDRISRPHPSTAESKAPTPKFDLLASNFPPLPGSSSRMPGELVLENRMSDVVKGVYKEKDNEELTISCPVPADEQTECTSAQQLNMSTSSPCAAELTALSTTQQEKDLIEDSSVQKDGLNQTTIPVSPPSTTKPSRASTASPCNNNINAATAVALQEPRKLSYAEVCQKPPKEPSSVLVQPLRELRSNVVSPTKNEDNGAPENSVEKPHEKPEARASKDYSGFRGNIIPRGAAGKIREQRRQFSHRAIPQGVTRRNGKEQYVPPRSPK
UniProt O43795: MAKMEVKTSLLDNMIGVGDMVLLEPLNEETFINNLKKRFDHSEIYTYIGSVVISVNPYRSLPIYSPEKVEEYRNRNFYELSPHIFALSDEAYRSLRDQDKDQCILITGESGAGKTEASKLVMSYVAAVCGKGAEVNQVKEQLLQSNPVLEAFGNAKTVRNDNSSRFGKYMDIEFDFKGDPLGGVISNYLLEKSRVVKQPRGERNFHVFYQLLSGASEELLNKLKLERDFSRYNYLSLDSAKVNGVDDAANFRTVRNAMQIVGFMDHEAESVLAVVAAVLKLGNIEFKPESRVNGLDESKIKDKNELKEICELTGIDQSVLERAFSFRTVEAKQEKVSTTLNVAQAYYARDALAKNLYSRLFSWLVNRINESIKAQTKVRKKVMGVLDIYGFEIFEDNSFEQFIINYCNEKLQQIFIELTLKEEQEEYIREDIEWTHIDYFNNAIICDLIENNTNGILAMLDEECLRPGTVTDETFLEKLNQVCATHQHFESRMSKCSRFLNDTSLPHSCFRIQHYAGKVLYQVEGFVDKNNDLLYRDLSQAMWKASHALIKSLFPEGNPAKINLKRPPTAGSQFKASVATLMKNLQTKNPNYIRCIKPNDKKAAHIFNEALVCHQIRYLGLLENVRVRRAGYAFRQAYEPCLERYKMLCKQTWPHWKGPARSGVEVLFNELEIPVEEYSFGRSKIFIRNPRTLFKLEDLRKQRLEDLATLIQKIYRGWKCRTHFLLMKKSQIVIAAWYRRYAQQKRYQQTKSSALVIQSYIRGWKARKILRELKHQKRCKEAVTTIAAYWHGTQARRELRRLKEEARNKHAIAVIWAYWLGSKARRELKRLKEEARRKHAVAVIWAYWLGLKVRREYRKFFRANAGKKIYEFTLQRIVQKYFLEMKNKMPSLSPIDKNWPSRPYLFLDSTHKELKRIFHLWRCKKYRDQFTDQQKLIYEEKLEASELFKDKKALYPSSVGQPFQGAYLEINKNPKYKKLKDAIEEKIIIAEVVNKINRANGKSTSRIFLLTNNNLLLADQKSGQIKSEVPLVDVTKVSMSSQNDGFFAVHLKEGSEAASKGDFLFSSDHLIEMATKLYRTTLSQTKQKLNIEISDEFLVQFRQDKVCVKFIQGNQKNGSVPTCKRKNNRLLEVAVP
UniProt P62140: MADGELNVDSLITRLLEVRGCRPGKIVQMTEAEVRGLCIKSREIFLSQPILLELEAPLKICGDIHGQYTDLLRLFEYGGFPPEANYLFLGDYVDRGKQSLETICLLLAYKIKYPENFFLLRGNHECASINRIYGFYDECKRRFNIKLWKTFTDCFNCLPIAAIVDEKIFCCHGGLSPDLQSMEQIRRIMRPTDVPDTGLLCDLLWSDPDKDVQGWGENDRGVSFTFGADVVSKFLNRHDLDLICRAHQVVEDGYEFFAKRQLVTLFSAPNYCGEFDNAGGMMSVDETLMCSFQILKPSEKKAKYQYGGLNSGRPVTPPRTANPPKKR
UniProt Q96EB6: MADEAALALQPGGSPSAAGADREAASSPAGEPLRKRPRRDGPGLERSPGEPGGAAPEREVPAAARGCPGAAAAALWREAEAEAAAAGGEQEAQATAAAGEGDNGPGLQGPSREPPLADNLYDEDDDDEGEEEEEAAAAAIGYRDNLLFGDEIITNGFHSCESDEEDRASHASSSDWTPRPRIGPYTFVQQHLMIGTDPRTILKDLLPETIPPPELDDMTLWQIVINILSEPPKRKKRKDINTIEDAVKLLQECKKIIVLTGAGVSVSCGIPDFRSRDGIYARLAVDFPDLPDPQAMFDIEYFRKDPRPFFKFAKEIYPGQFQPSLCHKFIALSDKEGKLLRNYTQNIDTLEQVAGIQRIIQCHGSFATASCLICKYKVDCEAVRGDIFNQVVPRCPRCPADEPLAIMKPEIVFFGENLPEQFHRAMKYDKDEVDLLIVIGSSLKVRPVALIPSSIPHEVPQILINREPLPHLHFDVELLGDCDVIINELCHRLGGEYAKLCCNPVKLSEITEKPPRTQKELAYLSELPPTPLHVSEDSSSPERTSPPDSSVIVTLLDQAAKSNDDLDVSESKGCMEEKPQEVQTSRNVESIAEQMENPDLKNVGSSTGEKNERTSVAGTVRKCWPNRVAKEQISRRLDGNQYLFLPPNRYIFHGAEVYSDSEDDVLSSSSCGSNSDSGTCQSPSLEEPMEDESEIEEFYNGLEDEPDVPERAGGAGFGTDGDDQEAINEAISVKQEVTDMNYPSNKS
UniProt P19525: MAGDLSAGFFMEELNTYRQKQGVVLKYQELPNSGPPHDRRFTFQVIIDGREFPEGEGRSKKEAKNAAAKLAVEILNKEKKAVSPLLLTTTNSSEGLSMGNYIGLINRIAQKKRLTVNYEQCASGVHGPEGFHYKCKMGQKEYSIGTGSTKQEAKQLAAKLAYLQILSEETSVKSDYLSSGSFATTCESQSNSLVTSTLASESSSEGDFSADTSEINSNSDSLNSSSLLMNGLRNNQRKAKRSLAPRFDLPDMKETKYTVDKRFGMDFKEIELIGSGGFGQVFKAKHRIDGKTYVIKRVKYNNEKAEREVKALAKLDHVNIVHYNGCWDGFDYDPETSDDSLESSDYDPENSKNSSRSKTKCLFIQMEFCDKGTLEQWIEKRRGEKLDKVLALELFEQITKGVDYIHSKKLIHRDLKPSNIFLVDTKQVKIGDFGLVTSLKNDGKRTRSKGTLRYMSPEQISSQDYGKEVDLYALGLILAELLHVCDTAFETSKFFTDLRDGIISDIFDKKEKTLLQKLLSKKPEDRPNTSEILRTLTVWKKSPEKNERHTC
UniProt Q13347: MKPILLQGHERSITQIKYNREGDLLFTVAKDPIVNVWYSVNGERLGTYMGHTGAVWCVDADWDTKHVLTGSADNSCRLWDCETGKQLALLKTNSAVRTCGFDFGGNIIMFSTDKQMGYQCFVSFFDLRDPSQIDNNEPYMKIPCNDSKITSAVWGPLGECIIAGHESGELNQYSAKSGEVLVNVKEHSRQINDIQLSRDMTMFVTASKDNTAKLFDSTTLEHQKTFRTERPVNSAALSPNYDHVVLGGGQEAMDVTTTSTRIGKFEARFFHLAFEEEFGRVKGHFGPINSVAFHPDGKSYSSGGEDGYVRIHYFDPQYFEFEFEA
UniProt P06730: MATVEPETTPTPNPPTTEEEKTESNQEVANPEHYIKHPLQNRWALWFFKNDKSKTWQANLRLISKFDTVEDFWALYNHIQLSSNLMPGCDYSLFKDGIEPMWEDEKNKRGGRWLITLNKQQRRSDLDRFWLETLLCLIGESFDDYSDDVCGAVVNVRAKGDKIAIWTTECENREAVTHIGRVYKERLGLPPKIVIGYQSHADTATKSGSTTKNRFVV

T2: FOSL1 (human (endogenous in Th17 cells)) (UniProt P15407)
T2 sequence: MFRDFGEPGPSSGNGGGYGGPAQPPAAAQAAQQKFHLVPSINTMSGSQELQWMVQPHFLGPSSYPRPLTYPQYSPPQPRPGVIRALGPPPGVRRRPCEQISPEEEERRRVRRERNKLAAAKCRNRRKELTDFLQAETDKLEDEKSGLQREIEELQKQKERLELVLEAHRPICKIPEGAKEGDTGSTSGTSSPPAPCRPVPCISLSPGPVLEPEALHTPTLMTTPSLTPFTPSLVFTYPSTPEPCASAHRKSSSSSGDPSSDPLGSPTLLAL

B1: ADD3 (protein, UniProt Q9UEY8 1-706)
chain: MSSDASQGVITTPPPPSMPHKERYFDRINENDPEYIRERNMSPDLRQDFNMMEQRKRVTQILQSPAFREDLECLIQEQMKKGHNPTGLLALQQIADYIMANSFSGFSSPPLSLGMVTPINDLPGADTSSYVKGEKLTRCKLASLYRLVDLFGWAHLANTYISVRISKEQDHIIIIPRGLSFSEATASNLVKVNIIGEVVDQGSTNLKIDHTGFSPHAAIYSTRPDVKCVIHIHTLATAAVSSMKCGILPISQESLLLGDVAYYDYQGSLEEQEERIQLQKVLGPSCKVLVLRNHGVVALGETLEEAFHYIFNVQLACEIQVQALAGAGGVDNLHVLDFQKYKAFTYTVAASGGGGVNMGSHQKWKVGEIEFEGLMRTLDNLGYRTGYAYRHPLIREKPRHKSDVEIPATVTAFSFEDDTVPLSPLKYMAQRQQREKTRWLNSPNTYMKVNVPEESRNGETSPRTKITWMKAEDSSKVSGGTPIKIEDPNQFVPLNTNPNEVLEKRNKIREQNRYDLKTAGPQSQLLAGIVVDKPPSTMQFEDDDHGPPAPPNPFSHLTEGELEEYKRTIERKQQGLEDAEQELLSDDASSVSQIQSQTQSPQNVPEKLEENHELFSKSFISMEVPVMVVNGKDDMHDVEDELAKRVSRLSTSTTIENIEITIKSPEKIEEVLSPEGSPSKSPSKKKKKFRTPSFLKKNKKKEKVEA
B2: JUNB (protein, UniProt P17275 1-347)
chain: MCTKMEQPFYHDDSYTATGYGRAPGGLSLHDYKLLKPSLAVNLADPYRSLKAPGARGPGPEGGGGGSYFSGQGSDTGASLKLASSELERLIVPNSNGVITTTPTPPGQYFYPRGGGSGGGAGGAGGGVTEEQEGFADGFVKALDDLHKMNHVTPPNVSLGATGGPPAGPGGVYAGPEPPPVYTNLSSYSPASASSGGAGAAVGTGSSYPTTTISYLPHAPPFAGGHPAQLGLGRGASTFKEEPQTVPEARSRDATPPVSPINMEDQERIKVERKRLRNRLAATKCRKRKLERIARLEDKVKTLKAENAGLSSTAGLLREQVAQLKQKVMTHVSNGCQLLLGVKGHAF
B3: MYO1D (protein, UniProt O94832 1-1006)
chain: MAEQESLEFGKADFVLMDTVSMPEFMANLRLRFEKGRIYTFIGEVVVSVNPYKLLNIYGRDTIEQYKGRELYERPPHLFAIADAAYKAMKRRSKDTCIVISGESGAGKTEASKYIMQYIAAITNPSQRAEVERVKNMLLKSNCVLEAFGNAKTNRNDNSSRFGKYMDINFDFKGDPIGGHINNYLLEKSRVIVQQPGERSFHSFYQLLQGGSEQMLRSLHLQKSLSSYNYIHVGAQLKSSINDAAEFRVVADAMKVIGFKPEEIQTVYKILAAILHLGNLKFVVDGDTPLIENGKVVSIIAELLSTKTDMVEKALLYRTVATGRDIIDKQHTEQEASYGRDAFAKAIYERLFCWIVTRINDIIEVKNYDTTIHGKNTVIGVLDIYGFEIFDNNSFEQFCINYCNEKLQQLFIQLVLKQEQEEYQREGIPWKHIDYFNNQIIVDLVEQQHKGIIAILDDACMNVGKVTDEMFLEALNSKLGKHAHFSSRKLCASDKILEFDRDFRIRHYAGDVVYSVIGFIDKNKDTLFQDFKRLMYNSSNPVLKNMWPEGKLSITEVTKRPLTAATLFKNSMIALVDNLASKEPYYVRCIKPNDKKSPQIFDDERCRHQVEYLGLLENVRVRRAGFAFRQTYEKFLHRYKMISEFTWPNHDLPSDKEAVKKLIERCGFQDDVAYGKTKIFIRTPRTLFTLEELRAQMLIRIVLFLQKVWRGTLARMRYKRTKAALTIIRYYRRYKVKSYIHEVARRFHGVKTMRDYGKHVKWPSPPKVLRRFEEALQTIFNRWRASQLIKSIPASDLPQVRAKVAAVEMLKGQRADLGLQRAWEGNYLASKPDTPQTSGTFVPVANELKRKDKYMNVLFSCHVRKVNRFSKVEDRAIFVTDRHLYKMDPTKQYKVMKTIPLYNLTGLSVSNGKDQLVVFHTKDNKDLIVCLFSKQPTHESRIGELVGVLVNHFKSEKRHLQVNVTNPVQCSLHGKKCTVSVETRLNQPQPDFTKNRSGFILSVPGN
B4: JUND (protein, UniProt P17535 1-347)
chain: METPFYGDEALSGLGGGASGSGGSFASPGRLFPGAPPTAAAGSMMKKDALTLSLSEQVAAALKPAAAPPPTPLRADGAPSAAPPDGLLASPDLGLLKLASPELERLIIQSNGLVTTTPTSSQFLYPKVAASEEQEFAEGFVKALEDLHKQNQLGAGAAAAAAAAAAGGPSGTATGSAPPGELAPAAAAPEAPVYANLSSYAGGAGGAGGAATVAFAAEPVPFPPPPPPGALGPPRLAALKDEPQTVPDVPSFGESPPLSPIDMDTQERIKAERKRLRNRIAASKCRKRKLERISRLEEKVKTLKSQNTELASTASLLREQVAQLKQKVLSHVNSGCQLLPQHQVPAY
B5: HNRNPR (protein, UniProt O43390 1-633)
chain: MANQVNGNAVQLKEEEEPMDTSSVTHTEHYKTLIEAGLPQKVAERLDEIFQTGLVAYVDLDERAIDALREFNEEGALSVLQQFKESDLSHVQNKSAFLCGVMKTYRQREKQGSKVQESTKGPDEAKIKALLERTGYTLDVTTGQRKYGGPPPDSVYSGVQPGIGTEVFVGKIPRDLYEDELVPLFEKAGPIWDLRLMMDPLSGQNRGYAFITFCGKEAAQEAVKLCDSYEIRPGKHLGVCISVANNRLFVGSIPKNKTKENILEEFSKVTEGLVDVILYHQPDDKKKNRGFCFLEYEDHKSAAQARRRLMSGKVKVWGNVVTVEWADPVEEPDPEVMAKVKVLFVRNLATTVTEEILEKSFSEFGKLERVKKLKDYAFVHFEDRGAAVKAMDEMNGKEIEGEEIEIVLAKPPDKKRKERQAARQASRSTAYEDYYYHPPPRMPPPIRGRGRGGGRGGYGYPPDYYGYEDYYDDYYGYDYHDYRGGYEDPYYGYDDGYAVRGRGGGRGGRGAPPPPRGRGAPPPRGRAGYSQRGAPLGPPRGSRGGRGGPAQQQRGRGSRGSRGNRGGNVGGKRKADGYNQPDSKRRQTNNQQNWGSQPIAQQPLQQGGDYSGNYGYNNDNQEFYQDTYGQQWK
B6: DDX1 (protein, UniProt Q92499 1-740)
chain: MAAFSEMGVMPEIAQAVEEMDWLLPTDIQAESIPLILGGGDVLMAAETGSGKTGAFSIPVIQIVYETLKDQQEGKKGKTTIKTGASVLNKWQMNPYDRGSAFAIGSDGLCCQSREVKEWHGCRATKGLMKGKHYYEVSCHDQGLCRVGWSTMQASLDLGTDKFGFGFGGTGKKSHNKQFDNYGEEFTMHDTIGCYLDIDKGHVKFSKNGKDLGLAFEIPPHMKNQALFPACVLKNAELKFNFGEEEFKFPPKDGFVALSKAPDGYIVKSQHSGNAQVTQTKFLPNAPKALIVEPSRELAEQTLNNIKQFKKYIDNPKLRELLIIGGVAARDQLSVLENGVDIVVGTPGRLDDLVSTGKLNLSQVRFLVLDEADGLLSQGYSDFINRMHNQIPQVTSDGKRLQVIVCSATLHSFDVKKLSEKIMHFPTWVDLKGEDSVPDTVHHVVVPVNPKTDRLWERLGKSHIRTDDVHAKDNTRPGANSPEMWSEAIKILKGEYAVRAIKEHKMDQAIIFCRTKIDCDNLEQYFIQQGGGPDKKGHQFSCVCLHGDRKPHERKQNLERFKKGDVRFLICTDVAARGIDIHGVPYVINVTLPDEKQNYVHRIGRVGRAERMGLAISLVATEKEKVWYHVCSSRGKGCYNTRLKEDGGCTIWYNEMQLLSEIEEHLNCTISQVEPDIKVPVDEFDGKVTYGQKRAAGGGSYKGHVDILAPTVQELAALEKEAQTSFLHLGYLPNQLFRTF
B7: FOSL1 (protein, UniProt P15407 1-271)
chain: MFRDFGEPGPSSGNGGGYGGPAQPPAAAQAAQQKFHLVPSINTMSGSQELQWMVQPHFLGPSSYPRPLTYPQYSPPQPRPGVIRALGPPPGVRRRPCEQISPEEEERRRVRRERNKLAAAKCRNRRKELTDFLQAETDKLEDEKSGLQREIEELQKQKERLELVLEAHRPICKIPEGAKEGDTGSTSGTSSPPAPCRPVPCISLSPGPVLEPEALHTPTLMTTPSLTPFTPSLVFTYPSTPEPCASAHRKSSSSSGDPSSDPLGSPTLLAL

What was measured:
[1] = molecular target: T1, FOSL2 (human (endogenous in Th17 cells)); assay: affinity purification with mass spectrometry
[2] = molecular target: T2, FOSL1 (human (endogenous in Th17 cells)); assay: affinity purification with mass spectrometry

Molecule | binding [1] | binding [2]
ABLIM1 (from UniProt O14639 1-778) | binds | –
ADD1 (from UniProt P35611 1-737) | binds | –
CAPZA2 (from UniProt P47755 1-286) | binds | –
CD5 (from UniProt P06127 25-495) | binds | –
CD48 (from UniProt P09326 27-220) | binds | –
CORO1C (from UniProt Q9ULV4 1-474) | binds | –
DBNL (from UniProt Q9UJU6 1-430) | binds | –
DHX15 (from UniProt O43143 1-795) | binds | binds
HNRNPH1 (from UniProt P31943 1-449) | binds | binds
HSPH1 (from UniProt Q92598 1-858) | binds | binds
LARP4 (from UniProt Q71RC2 1-724) | binds | binds
MYO1B (from UniProt O43795 1-1136) | binds | –
PPP1CB (from UniProt P62140 1-327) | binds | –
RUNX1 (from UniProt Q01196 1-453) | binds | binds
SIRT-1 (from UniProt Q96EB6) | binds | binds
eIF2AK2 (from UniProt P19525 1-551) | binds | binds
eIF3I (from UniProt Q13347 1-325) | binds | binds
eIF4E (from UniProt P06730 1-217) | binds | binds
eIF4G1 (from UniProt Q04637 1-1599) | binds | binds
B1 | binds | –
B2 | binds | –
B3 | binds | –
B4 | binds | –
B5 | – | binds
B6 | – | binds
B7 | no binding | –
